Results reported in patent publication US20260355357A1, “DIAGNOSTIC AGENTS AND USES THEREOF” (HADASIT MEDICAL RESEARCH SERVICES AND DEVELOPMENT LTD., priority 2023, published 2026).

Test system: breast cancer tumor
Test: Deuterium MRI of female mice bearing breast cancer tumor
Type: in vivo, mouse
Conditions: 0.5 g/kg intravenous, data not shown

`[2H]C([2H])(O)[C@H]1OC(O)C[C@@]([2H])(O)[C@]1([2H])O` (stereo partly drawn) [[D4]DDG, [3,4,6,6-D4]2-deoxy-D-glucose] was tested, and the “time points after administration at which visualized by deuterium MRI” value was 30 minutes to at least 48 hours.
